Source: PubChem BioAssay AID743121 (NCATS, 2013)

Aim: 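Genes whose silencing strengthens cell killing by camptothecin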 (primary screen)
Cell system: MDA-MB-231 cells, a human breast cancer line
Reagent: single siRNA against human genes, 20 nM siRNA (0.8 pmol per well)
Time to read-out: 120 h (drug added 48 h after transfection, read 72 h later)
Conditions: camptothecin 20 nM (about EC30) for 72 h; vehicle 0.1% DMSO in parallel plates
Read-out: 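CellTiter-Glo ATP signal, scaled to control siRNA as percent viability; sensitisation given as log2 of untreated divided by camptothecin-treated viability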
Direction: log2 vehicle/camptothecin viability: higher = stronger sensitisation to camptothecin; viability with camptothecin and viability without drug: higher = more viable cells
Active means: 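Each gene scored by redundant siRNA activity (RSA) over its individual siRNA ratios; a gene is called active at p < 0.001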
The deposit covers about 26,000 reagents; this is an unselected part. Over the whole deposit, 167 (0.63%) got an active call. 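Calls are per gene from RSA p-values that are not deposited; an individual active-marked siRNA can sensitise only weakly.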 Reagents against one gene are numbered here.

The first 6 entries, to show the layout:
no.	gene	siRNA no.	log2 vehicle/camptothecin viability	viability with camptothecin (% of control)	viability without drug (% of control)	call
1	CCDC28A	1	-0.155	85.3	76.6	inactive
2	CCDC28A	2	-0.499	50.3	35.6	inactive
3	CCDC28A	3	-0.152	69.5	62.5	inactive
4	CCDC28A	4	0.439	48.7	66	inactive
5	ABCC10	1	-0.131	91.7	83.7	inactive
6	ABCC10	2	-0.544	46.1	31.6	inactive

The listing, repeating the preview:
no.	gene	siRNA no.	log2 vehicle/camptothecin viability	viability with camptothecin (% of control)	viability without drug (% of control)	call
1	CCDC28A	1	-0.155	85.3	76.6	inactive
2	CCDC28A	2	-0.499	50.3	35.6	inactive
3	CCDC28A	3	-0.152	69.5	62.5	inactive
4	CCDC28A	4	0.439	48.7	66	inactive
5	ABCC10	1	-0.131	91.7	83.7	inactive
6	ABCC10	2	-0.544	46.1	31.6	inactive
7	ABCC10	3	0.0108	92.5	93.2	inactive
8	ABCC10	4	-0.374	75.4	58.2	inactive
9	PDPK1	1	0.209	35.4	40.9	inactive
10	PDPK1	2	-0.102	74.7	69.6	inactive
11	PDPK1	3	-0.223	48.6	41.6	inactive
12	PDPK1	4	0.357	72.4	92.8	inactive
13	ARHGAP26	1	0.115	101	110	inactive
14	ARHGAP26	2	-0.524	50.8	35.3	inactive
15	ARHGAP26	3	-0.196	104	90.4	inactive
16	ARHGAP26	4	-0.11	74	68.6	inactive
17	VANGL1	1	-0.578	61.3	41.1	inactive
18	VANGL1	2	0.00434	107	107	inactive
19	VANGL1	3	-0.123	82.4	75.7	inactive
20	VANGL1	4	0.148	71.1	78.8	inactive
21	EGF	1	-0.0429	94.2	91.4	inactive
22	EGF	2	0.405	28.4	37.6	inactive
23	EGF	3	-0.702	91.2	56	inactive
24	EGF	4	-0.425	70.2	52.3	inactive
25	TNS1	1	-0.199	85.2	74.2	inactive
26	TNS1	2	-0.00702	63.4	63	inactive
27	TNS1	3	-0.0747	96.8	91.9	inactive
28	TNS1	4	-0.334	40.6	32.2	inactive
29	CTSV	1	-0.254	119	100	inactive
30	CTSV	2	-0.247	58	48.8	inactive
31	CTSV	3	0.645	30.4	47.6	inactive
32	CTSV	4	-0.544	48.9	33.5	inactive
33	CCKBR	1	0.07	96.6	101	inactive
34	CCKBR	2	0.578	42.6	63.6	inactive
35	CCKBR	3	-0.328	111	88.7	inactive
36	CCKBR	4	-0.416	47.7	35.7	inactive
37	BMP2K	1	0.112	114	123	inactive
38	BMP2K	2	-0.0193	98	96.7	inactive
39	BMP2K	3	0.393	13.8	18.1	inactive
40	BMP2K	4	-0.118	84.9	78.2	inactive
41	CYP51A1	1	-0.371	89.8	69.4	inactive
42	CYP51A1	2	1.16	21.1	47.2	inactive
43	CYP51A1	3	0.158	88.6	98.8	inactive
44	CYP51A1	4	-0.054	101	96.8	inactive
45	IL20	1	0.000539	96.9	96.9	inactive
46	IL20	2	-0.086	87.7	82.6	inactive
47	IL20	3	-0.178	78.8	69.6	inactive
48	IL20	4	-0.412	30.9	23.2	inactive
49	TDG	1	-0.135	84.7	77.1	inactive
50	TDG	2	0.0648	102	107	inactive
51	TDG	3	1.02	9.28	18.8	inactive
52	TDG	4	0.0965	51.4	55	inactive
53	CNGA1	1	-0.0391	88.8	86.5	inactive
54	CNGA1	2	0.0769	94.3	99.5	inactive
55	CNGA1	3	-0.174	83	73.5	inactive
56	CNGA1	4	-0.252	84.5	71	inactive
57	PYGM	1	-0.578	56.5	37.9	inactive
58	PYGM	2	-0.00336	74.1	73.9	inactive
59	PYGM	3	-0.0327	63.9	62.4	inactive
60	PYGM	4	-0.149	73.8	66.6	inactive
61	PPP1R3B	1	-0.163	115	103	inactive
62	PPP1R3B	2	-0.353	116	90.7	inactive
63	PPP1R3B	3	0.48	42.2	58.8	inactive
64	PPP1R3B	4	-0.0244	60.1	59.1	inactive
65	CLCA1	1	-0.192	43.7	38.3	inactive
66	CLCA1	2	-0.311	97.1	78.3	inactive
67	CLCA1	3	-0.37	96.1	74.4	inactive
68	CLCA1	4	0.00968	91.8	92.4	inactive
